Measurements from “University of Dundee, Small-Polar-MMV Screening Library” (2021), ChEMBL document CHEMBL3988442.

Protein sequences, listed by entry. Tags and fused reporters are not part of them.
UniProt P9WPC5, whole entry: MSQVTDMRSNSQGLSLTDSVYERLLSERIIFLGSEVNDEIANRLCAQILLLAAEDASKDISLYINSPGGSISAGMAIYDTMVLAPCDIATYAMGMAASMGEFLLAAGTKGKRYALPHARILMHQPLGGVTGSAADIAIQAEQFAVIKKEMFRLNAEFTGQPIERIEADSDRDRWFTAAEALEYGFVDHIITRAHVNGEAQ
UniProt P9WPC3, whole entry partner: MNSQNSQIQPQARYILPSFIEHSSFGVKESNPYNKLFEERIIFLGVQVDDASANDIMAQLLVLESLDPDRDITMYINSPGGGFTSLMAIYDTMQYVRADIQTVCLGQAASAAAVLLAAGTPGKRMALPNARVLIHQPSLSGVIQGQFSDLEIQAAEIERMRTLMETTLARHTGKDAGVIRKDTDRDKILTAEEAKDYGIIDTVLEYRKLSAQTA
UniProt P9WNZ1, whole entry: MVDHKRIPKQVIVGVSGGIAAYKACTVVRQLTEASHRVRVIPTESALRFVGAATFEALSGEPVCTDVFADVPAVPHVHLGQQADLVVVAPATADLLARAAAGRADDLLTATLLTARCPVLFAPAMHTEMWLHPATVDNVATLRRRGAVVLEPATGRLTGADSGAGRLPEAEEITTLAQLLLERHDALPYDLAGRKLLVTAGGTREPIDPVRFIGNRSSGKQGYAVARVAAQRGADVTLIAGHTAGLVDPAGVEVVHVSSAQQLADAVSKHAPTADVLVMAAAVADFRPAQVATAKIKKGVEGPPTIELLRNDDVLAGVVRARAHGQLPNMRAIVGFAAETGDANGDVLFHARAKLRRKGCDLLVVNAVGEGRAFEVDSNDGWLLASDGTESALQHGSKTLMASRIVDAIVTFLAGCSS

ClpP1P2: 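ClpP1P2, Mycobacterium tuberculosis (UniProt P9WPC5 and UniProt P9WPC3). Protease assay of ClpP1P2, read by the AMC dye that it sets free. Concentration: 50 µM. Higher reads as stronger inhibition, judged from the few compounds that gave an IC50. Most other retested compounds had strongly negative values. Of about 69,000 compounds tested this way, about 10 (0.015%) reached 50% or more in at least one test.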
CoaBC: 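Enzyme assay of CoaBC with a phosphate dye (Biomol Green) read at 650 nm. Target: Coenzyme A biosynthesis protein CoaBC, Mycobacterium tuberculosis (UniProt P9WNZ1). Tested at 30 µM. Higher reads as stronger inhibition, judged from the few compounds that gave an IC50. Most strong results did not repeat in a second test. About 67,000 compounds were tested under these conditions; 0.06% (about 40) showed 50% or more at least once.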

Values are the deposited “Percent Effect”, in %. The controls that fix the scale are not given in the record; negative values are as filed. The compounds are a random part of those screened. Two or more numbers in one place are separate tests of the same structure; such repeats can differ widely.

| structure | ClpP1P2 | CoaBC |
|---|---|---|
| `O=C(c1cccnc1O)N1CCC2(CCCO2)CC1` | -12.9% | 2.086% |
| `COCC[C@]1(O)CCN(C(=O)c2cnn(C)c2)C[C@H]1C` | -3.677% | -17.27% |
| `Cc1occc1C(=O)N1CCn2c(COCC3CC3)cnc2C1C` (stereo not shown) | 2.528% | 2.521% |
| `O=C(CN1CCOc2ccc(Cl)cc21)NCc1ncc[nH]1` | -6.315% | 0% |
| `Cc1c(NC(=O)c2cnc[nH]2)cccc1C(=O)NC(C)(C)C` | -9.784% | -0.3774% |
| `CN(Cc1nc(C(F)(F)F)cs1)C(=O)CCc1ccccn1` | -13% | 3.03% |
| `COCc1cccc(CNc2cnn(C(C)(C)C)c(=O)c2Cl)c1` | -9.294% | 0% |
| `Cc1nc(CN(Cc2ccccc2)C2CCS(=O)(=O)C2)oc1C` (stereo not shown) | 3.139% | 10.18% |
| `CCc1nc(CNCC2CCCN2c2cc(NC)ncn2)cs1` (stereo not shown) | -1.495% | 11.4% |
| `CCN(Cc1cc(Cl)c(O)c(OC)c1)Cc1nc(COC)no1` | 3.687% | 3.581% |
| `CCc1ccc(C(=O)N(c2cccnc2)C(C)C)cc1S(C)(=O)=O` | -0.6046% | 5.041% |
| `NC(=O)CN1CCC(C(=O)NCc2ccc3nonc3c2)CC1` | 8.886% | -0.4878% |
| `COc1cccc2c1OCCCN(c1nc3c(c(=O)[nH]1)CCNCC3)C2` | -11.03% | 1.491% |
| `CC1CN(C(=O)c2cccc(OCc3cscn3)c2)CCO1` (stereo not shown) | -5.345% | 4.737% |
| `CC(C)n1ccnc1C1CCN(Cc2ccc(C(F)(F)F)c(F)c2)CC1` | 0.6545% | 7.614% |
| `Cc1noc(C)c1CN1CCOC2(CCCN(c3nccs3)C2)C1` (stereo not shown) | 2.637% | 0.6345% |
| `Cc1cncc(C(=O)N2CCC3(CC2)NC(=O)CC3c2ccccc2)c1` (stereo not shown) | 16.22% | 0.5076% |
| `Cn1cnc2c(N3CCCC3)nc(C3CCN(CC4CC4)CC3)cc21` | -17.95% | -17.26% |
| `O=C(NC1CCc2cc(Cl)ccc21)C1CCN(C(=O)C2CC2)CC1` (stereo not shown) | 3.1% | 1.952% |
| `COCc1nn(C(C)C)c2c1CCN(Cc1ccc(C)s1)C2` | -0.5543% | 7.097% |
| `CC(C)OCCCN(CC(=O)N1CCNCC1)C(=O)c1cccc(Cl)c1` | -2.09% | 3.038% |
| `Cc1nccn1CCC1CCCCN1Cc1cccc(CCN)c1` (stereo not shown) | -0.3872% | 5.913% |
| `O=C(c1ccc(-n2cccn2)nc1)N1CCCC(n2cccn2)C1` (stereo not shown) | -15.33% | 1.901% |
| `COc1ccc(C)cc1CN(CC(N)=O)C(C)C` | 2.987% | 1.656% |
| `Cc1cc(NC(=O)CNCc2csc(-c3ncccn3)n2)ccc1Cl` | 2.967% | 2.016% |
| `Cc1nc(N2CCOCC2)nc2c1CCN(Cc1cccnc1)CC2` | -7.051% | 3.426% |
| `CCc1c(NCc2ccc(F)cc2)cnn1CC(C)C` | 5.8% | 3.526% |
| `Cc1c(C2CCCN(C(=O)OC(C)(C)C)C2)n2c(nc1=O)CCC2` (stereo not shown) | 0.7842% | -0.4902% |
| `CCC(Oc1ccccc1)c1nn2c(CN(CC)CC)nnc2s1` (stereo not shown) | 17.35% | 4.027% |
| `Cc1ccc(NC(=O)N(C)Cc2cnn(C)c2)cc1OCC(F)F` | 2.516% | 6.287% |
| `O=C(NC1CCCN(c2ccccc2Cl)C1)c1nc(=O)[nH][nH]1` (stereo not shown) | -1.771% | 9.752% |
| `Cc1noc([C@@H]2C[C@H](NC(=O)NC(C)C)CN2C)n1` | 2.897% | -0.6623% |
| `CC(=O)N1CCc2nc(N3CCCC3)nc(C)c2C1` | 15.22% | 3.294% |
| `CCc1nc(CN2CCCN(Cc3noc(C4CC4)n3)CC2)cs1` | -5.671% | -28.89% |
| `CN(C(=O)C1CCN(Cc2cnc3ccccn23)CC1)c1ccccc1` | -4.523% | 2.675% |
| `CC(=O)N1CC(=O)N(c2ccccc2)CC12CCN(Cc1ccsc1)C2` (stereo not shown) | 2.057% | 7.818% |
| `Cc1cc(N2CCCC2c2cnccn2)ncn1` (stereo not shown) | 1.983% | -13.06% |
| `CN1CC(=O)N(c2ccsc2)CC12CCN(C(=O)Nc1ccccc1)C2` (stereo not shown) | 2.93% | 3.854% |
| `CCOCc1cnc2n1CCN(C(=O)c1ccccc1)C2C` (stereo not shown) | 16.25% | 1.114% |
| `CC1CCCCN1C(=O)COCc1nc(-c2ccncc2)no1` (stereo not shown) | -1.509% | 2.87% |
| `CC(Cn1cccn1)NC(=O)NCCc1ccc(Cl)s1` (stereo not shown) | 5.736% | 2.057% |
| `c1cnc(NCc2cncc3c2CCN(Cc2ccoc2)C3)nc1` | 6.877% | 4.822% |
| `CC(NCC1=Cc2cc(Cl)ccc2OC1)c1nnc2n1CCCC2` (stereo not shown) | -2.334% | 1.035% |
| `CC(C)N[C@@H]1CC[C@@H]1NC(=O)c1ccccc1OC(F)(F)C(F)F` | 2.45% | -4.194% |
| `CCN1CCN(CC(O)c2cc(Cl)ccc2Cl)CC1` (stereo not shown) | 8.693% | -37.07% |
| `CN1CCN(S(=O)(=O)c2ccccc2)Cc2cccnc21` | 12.88% | 1.114% |
| `O=C(CCn1cnc2cc(F)c(F)cc21)N1CCN(C2CC2)CC1` | -2.348% | 5.665% |
| `COCCCn1cnnc1C(C)NC(=O)c1[nH]c2ccc(C)cc2c1C` (stereo not shown) | 6.262% | 13.41% |
| `Cc1ccc(-c2cc(C(=O)N(C)Cc3noc4c3CCCC4)[nH]n2)s1` | 10.34% | 0.6274% |
| `Cn1nc(CN2CCOCC2)c2c1CN(C(=O)c1ccc[nH]1)C2` | 1.478% | -3.75% |
| `CCc1nnc(Nc2cc(C)nc(C3CN(C(=O)C(C)C)CCO3)c2)s1` (stereo not shown) | 7.323% | -25.91% |
| `CN(Cc1cc(C2CC2)[nH]n1)C(=O)C(c1cccnc1)N1CCCC1` (stereo not shown) | 14.14% | -1.6% |
| `Cn1ncc2c1NC(=O)CSC2c1ccc2c(c1)OCO2` (stereo not shown) | -8.866% | -3.924% |
| `CC(C)(C)CN1CCCC12CCN(S(=O)(=O)c1ccccc1)C2` (stereo not shown) | -9.211% | 4.5% |
| `O=C(c1cncnc1)N1C[C@@H]2CC[C@H](Oc3cccc(F)c3)[C@@H]2C1` | -5.101% | 1.363% |
| `CC(NC(=O)CCC(=O)c1cccs1)c1nnc2n1CCCCC2` (stereo not shown) | -4.88% | -6.408% |
| `Cc1cc(N2CCC(C(=O)N(C)C)CC2)nc(-c2ccncc2)n1` | -4.28% | -10.19% |
| `Nc1nccnc1C(=O)NCCCNc1ccc(C(F)(F)F)cn1` | -137.1% | 7.928% |
| `O=C1NC2(CCN(C(=O)CN3CCOCC3)CC2)Nc2ccc(Cl)cc21` | -699.5% | 2.891% |
| `Cc1nn(C)c(Oc2cccnc2)c1NC(=O)C1CCCO1` (stereo not shown) | 10.09% | 7.847% |
| `O=C(NCCc1cccnc1)c1ccc2nccn2c1` | -2.687% | 4.866% |
| `CCN(CC)CCNS(=O)(=O)c1cccc(CSC)c1` | -0.3449% | -2.116% & 35.02% |
| `CN(C)C(=O)Cn1ccc2cc(NC(=O)N3CCOCC3)ccc21` | 3.831% | -5.652% |
| `Cc1cc(C)n(C2CN(C(=O)CN3C(=O)CSc4ccccc43)C2)n1` | -10.59% | -0.7371% |
| `CCN(CC)C(CNC(=O)c1c(C)noc1C(C)C)c1ccsc1` (stereo not shown) | -4.649% | 11.84% |
| `CC1CCC(O)(CSc2nnnn2C)CC1` (stereo not shown) | -2.591% | 2.917% |
| `O=C(O)c1c(-c2cncnc2)ncc2c1CCN(Cc1cccnc1)C2` | -33.27% | 4.634% |
| `Cn1nnnc1SC1CCCN(c2ccccc2Cl)C1=O` (stereo not shown) | -2.426% | 0.4464% |
| `CCCN1CCN(C(=O)c2ccnc(N)c2)[C@H]2CS(=O)(=O)C[C@H]21` | -4.181% | 4.762% |
| `CCc1nccn1C1CCCN(C(=O)c2ccc(C(N)=O)cn2)C1` (stereo not shown) | -22.44% | 5.263% |
| `C=C(C)Cn1nnc(C2(NC(=O)c3ccccc3)CCCC2)n1` | -20.17% | 0.369% |
| `COCCNC(=O)[C@@H]1CN(c2cc(OC)ncn2)C[C@H]2OCC[C@H]21` | -6.771% | 0.1233% |
| `CN1[C@H]2CC[C@@H]1CN(c1nc(-c3ccncc3)nc3c1cnn3C)CC2` | -7.809% | 2.554% |
| `COc1ccc(C[C@H]2CN(c3cc(OC)ncn3)CC[C@@H]2OC)cc1` | -14.26% | 2.581% |